In the supplement of paper PMC10849652:
Some of the results follow.

Chains of the proteins cited; added tags and fusions are not shown. Lines headed by an entry give the natural chain unless they say otherwise; changes in a name come on top.
UniProt Q5BKZ1: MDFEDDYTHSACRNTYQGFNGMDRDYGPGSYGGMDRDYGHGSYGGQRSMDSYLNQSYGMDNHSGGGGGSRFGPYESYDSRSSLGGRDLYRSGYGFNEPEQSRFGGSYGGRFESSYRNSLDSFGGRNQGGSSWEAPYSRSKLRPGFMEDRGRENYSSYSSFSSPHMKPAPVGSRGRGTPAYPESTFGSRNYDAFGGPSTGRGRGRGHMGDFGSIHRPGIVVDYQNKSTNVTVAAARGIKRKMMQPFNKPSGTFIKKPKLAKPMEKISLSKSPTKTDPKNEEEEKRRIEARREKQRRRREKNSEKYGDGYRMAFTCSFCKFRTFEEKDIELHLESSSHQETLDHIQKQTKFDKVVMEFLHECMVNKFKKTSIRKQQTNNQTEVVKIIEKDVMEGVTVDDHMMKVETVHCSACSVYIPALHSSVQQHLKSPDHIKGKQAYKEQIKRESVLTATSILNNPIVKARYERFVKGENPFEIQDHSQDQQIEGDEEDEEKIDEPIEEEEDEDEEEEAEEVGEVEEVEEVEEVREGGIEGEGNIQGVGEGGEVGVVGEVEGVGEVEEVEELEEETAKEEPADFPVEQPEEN
UniProt Q15649: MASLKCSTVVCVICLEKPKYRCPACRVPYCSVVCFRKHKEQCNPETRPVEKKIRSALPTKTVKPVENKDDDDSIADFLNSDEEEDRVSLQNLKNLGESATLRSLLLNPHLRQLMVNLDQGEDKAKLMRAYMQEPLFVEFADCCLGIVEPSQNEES
UniProt O95229: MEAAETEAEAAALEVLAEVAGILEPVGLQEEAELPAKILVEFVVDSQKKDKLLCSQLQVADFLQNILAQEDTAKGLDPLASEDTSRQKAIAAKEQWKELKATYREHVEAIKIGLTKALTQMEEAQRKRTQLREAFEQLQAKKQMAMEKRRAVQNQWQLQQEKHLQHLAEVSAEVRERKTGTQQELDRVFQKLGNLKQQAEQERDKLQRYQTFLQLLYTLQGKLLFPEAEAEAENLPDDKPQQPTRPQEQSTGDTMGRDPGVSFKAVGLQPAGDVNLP
UniProt Q9UL40: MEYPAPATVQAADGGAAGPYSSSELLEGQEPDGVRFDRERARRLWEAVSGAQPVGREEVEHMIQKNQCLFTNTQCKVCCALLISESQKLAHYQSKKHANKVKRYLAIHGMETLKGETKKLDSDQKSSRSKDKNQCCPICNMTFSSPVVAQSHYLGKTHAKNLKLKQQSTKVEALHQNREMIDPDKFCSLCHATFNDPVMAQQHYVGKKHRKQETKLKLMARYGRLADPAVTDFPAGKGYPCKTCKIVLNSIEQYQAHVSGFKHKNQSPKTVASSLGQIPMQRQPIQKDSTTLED
UniProt Q8NHG8: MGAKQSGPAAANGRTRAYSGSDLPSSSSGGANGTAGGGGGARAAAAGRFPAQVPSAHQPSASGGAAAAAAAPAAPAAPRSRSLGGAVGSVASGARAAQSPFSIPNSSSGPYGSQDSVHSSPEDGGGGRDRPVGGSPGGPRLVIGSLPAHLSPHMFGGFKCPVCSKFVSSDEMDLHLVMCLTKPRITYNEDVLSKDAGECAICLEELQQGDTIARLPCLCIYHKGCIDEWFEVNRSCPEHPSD
UniProt O75467: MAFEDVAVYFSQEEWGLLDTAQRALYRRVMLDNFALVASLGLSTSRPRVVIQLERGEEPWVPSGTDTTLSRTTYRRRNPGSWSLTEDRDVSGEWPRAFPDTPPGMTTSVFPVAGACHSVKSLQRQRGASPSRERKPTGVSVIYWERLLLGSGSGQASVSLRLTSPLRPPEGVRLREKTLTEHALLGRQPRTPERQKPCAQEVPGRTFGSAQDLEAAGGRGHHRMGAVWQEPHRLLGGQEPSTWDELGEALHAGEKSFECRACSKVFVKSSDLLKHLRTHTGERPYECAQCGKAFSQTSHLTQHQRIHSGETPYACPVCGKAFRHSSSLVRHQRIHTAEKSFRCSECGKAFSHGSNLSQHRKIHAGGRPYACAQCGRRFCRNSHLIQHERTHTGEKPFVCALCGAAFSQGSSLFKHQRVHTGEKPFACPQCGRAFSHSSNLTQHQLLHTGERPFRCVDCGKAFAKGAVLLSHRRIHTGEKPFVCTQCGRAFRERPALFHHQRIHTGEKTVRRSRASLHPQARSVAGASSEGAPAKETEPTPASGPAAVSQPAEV
UniProt Q8N0Y2: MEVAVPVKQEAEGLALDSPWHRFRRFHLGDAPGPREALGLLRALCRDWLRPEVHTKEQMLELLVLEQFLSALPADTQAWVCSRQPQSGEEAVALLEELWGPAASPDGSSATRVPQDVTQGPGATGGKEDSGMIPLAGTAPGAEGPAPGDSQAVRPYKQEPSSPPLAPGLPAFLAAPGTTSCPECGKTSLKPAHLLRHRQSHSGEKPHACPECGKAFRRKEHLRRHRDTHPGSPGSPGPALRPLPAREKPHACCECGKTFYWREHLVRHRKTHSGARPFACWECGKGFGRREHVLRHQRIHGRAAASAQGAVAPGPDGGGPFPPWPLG
UniProt Q96IQ9: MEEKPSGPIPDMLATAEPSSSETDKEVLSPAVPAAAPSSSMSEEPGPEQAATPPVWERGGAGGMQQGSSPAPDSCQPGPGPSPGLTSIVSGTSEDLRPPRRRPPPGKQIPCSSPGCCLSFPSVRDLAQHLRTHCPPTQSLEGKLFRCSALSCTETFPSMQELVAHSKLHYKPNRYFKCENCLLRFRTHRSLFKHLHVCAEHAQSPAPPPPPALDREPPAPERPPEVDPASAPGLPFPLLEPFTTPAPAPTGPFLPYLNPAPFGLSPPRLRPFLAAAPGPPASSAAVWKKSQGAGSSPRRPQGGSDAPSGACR
UniProt Q5VV52: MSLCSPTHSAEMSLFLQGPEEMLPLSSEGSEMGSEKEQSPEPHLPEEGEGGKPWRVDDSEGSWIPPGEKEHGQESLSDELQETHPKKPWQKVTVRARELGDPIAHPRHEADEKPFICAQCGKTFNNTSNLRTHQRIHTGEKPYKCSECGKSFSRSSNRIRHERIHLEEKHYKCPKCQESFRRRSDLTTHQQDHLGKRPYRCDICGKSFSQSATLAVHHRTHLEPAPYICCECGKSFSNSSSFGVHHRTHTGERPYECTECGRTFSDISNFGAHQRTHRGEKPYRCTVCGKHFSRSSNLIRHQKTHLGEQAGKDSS
UniProt Q9Y2X9: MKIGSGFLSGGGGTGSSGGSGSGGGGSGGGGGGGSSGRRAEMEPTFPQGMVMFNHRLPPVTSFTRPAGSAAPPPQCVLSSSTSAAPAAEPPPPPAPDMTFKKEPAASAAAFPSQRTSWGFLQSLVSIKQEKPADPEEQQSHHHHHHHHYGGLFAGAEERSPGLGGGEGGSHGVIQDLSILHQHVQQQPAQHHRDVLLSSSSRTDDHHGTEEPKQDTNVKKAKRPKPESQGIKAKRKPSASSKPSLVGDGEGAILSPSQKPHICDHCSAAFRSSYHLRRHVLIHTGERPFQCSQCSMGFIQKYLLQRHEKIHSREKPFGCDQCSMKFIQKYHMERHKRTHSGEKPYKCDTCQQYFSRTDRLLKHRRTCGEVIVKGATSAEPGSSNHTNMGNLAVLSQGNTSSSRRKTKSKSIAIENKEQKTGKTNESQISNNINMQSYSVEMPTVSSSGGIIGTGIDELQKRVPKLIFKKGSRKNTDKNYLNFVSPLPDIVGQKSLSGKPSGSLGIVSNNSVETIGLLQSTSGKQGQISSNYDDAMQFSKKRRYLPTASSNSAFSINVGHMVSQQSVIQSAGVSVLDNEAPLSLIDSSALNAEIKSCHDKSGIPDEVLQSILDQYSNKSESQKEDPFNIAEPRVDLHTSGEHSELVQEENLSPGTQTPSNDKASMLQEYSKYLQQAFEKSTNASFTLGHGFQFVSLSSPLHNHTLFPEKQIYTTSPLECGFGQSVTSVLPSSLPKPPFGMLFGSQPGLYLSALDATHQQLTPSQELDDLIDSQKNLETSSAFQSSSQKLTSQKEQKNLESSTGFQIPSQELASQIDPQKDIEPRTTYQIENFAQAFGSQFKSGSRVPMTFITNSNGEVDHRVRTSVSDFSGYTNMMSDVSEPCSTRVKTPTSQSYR
UniProt Q9H4I2: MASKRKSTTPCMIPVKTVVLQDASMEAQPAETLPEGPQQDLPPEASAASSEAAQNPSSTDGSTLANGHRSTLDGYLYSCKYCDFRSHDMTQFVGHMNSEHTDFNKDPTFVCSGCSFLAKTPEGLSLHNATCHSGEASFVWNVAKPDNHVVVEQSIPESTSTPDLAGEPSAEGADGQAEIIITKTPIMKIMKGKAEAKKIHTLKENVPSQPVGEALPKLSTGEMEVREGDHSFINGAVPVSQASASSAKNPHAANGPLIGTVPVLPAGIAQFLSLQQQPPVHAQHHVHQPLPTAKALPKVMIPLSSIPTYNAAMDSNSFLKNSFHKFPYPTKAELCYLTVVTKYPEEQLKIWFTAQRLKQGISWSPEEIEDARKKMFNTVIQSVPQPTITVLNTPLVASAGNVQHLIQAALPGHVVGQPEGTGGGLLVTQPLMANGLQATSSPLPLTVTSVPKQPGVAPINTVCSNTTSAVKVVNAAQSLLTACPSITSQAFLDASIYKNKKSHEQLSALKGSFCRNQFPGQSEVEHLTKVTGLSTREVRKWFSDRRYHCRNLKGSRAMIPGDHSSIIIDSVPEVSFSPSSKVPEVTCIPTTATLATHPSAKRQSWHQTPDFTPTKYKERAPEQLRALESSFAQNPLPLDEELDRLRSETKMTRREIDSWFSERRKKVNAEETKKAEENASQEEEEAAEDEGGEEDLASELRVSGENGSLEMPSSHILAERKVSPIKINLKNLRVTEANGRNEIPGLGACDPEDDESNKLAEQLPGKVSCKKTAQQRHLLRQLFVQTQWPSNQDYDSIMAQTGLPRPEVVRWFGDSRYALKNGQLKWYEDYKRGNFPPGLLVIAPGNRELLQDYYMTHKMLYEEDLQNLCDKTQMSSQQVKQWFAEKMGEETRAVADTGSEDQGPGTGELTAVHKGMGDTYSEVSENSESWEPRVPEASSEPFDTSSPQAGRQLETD
UniProt Q6ZMS4: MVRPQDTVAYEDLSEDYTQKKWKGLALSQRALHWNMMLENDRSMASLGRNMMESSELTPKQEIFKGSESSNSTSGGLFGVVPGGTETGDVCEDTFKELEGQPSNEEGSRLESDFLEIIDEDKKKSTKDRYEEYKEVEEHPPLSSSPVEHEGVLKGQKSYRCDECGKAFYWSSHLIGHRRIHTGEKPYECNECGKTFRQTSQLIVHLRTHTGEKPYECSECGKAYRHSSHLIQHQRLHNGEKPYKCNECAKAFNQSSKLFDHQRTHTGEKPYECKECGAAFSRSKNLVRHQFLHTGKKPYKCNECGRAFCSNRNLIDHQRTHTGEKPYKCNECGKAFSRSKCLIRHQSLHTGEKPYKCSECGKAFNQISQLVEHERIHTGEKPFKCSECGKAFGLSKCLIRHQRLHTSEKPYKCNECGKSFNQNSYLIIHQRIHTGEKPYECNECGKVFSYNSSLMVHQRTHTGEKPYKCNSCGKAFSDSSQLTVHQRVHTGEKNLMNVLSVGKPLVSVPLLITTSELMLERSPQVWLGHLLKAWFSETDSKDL
UniProt Q9P1U0, whole entry, looked up: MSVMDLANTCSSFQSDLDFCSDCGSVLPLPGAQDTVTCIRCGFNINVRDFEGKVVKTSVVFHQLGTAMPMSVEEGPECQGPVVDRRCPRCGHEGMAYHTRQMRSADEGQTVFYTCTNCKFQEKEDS
UniProt Q8TF68: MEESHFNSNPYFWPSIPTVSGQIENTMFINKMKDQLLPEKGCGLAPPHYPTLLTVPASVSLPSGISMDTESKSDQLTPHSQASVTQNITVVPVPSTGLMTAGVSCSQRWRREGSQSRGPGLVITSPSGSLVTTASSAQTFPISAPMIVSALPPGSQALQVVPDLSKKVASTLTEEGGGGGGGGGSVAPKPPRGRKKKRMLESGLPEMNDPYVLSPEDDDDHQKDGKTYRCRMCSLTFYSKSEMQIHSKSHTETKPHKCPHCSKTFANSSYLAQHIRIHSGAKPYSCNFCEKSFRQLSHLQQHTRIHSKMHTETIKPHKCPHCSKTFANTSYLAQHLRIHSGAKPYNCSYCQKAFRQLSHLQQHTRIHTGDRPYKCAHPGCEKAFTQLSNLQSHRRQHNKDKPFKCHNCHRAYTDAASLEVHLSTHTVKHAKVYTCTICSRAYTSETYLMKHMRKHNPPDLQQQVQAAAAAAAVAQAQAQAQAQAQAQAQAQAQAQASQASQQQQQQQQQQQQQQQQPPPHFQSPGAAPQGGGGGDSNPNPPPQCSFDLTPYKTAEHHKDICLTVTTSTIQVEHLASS
UniProt Q8NCK3: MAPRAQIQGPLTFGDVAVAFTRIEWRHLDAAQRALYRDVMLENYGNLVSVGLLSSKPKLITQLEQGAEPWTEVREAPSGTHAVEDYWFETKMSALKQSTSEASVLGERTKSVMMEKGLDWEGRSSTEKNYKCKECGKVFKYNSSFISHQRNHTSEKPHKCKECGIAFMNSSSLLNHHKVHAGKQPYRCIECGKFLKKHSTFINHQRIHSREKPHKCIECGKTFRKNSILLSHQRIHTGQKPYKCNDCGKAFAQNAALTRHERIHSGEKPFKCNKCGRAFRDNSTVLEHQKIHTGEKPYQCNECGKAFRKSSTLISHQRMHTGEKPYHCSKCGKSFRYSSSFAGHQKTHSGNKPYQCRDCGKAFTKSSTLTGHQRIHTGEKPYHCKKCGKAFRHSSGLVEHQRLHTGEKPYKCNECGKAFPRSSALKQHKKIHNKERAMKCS

Legend:
Assay in all cases: log2 fold change, soluble protein after heating vs DMSO (PISA); higher = thermal stabilisation; K562 lysate, 10 uM; active = over 0.2 and 3.5 SD of the protein, either way, in both replicates (recomputed)
alvocidib = compound: CN1CC[C@H](c2c(O)cc(O)c3c(=O)cc(-c4ccccc4Cl)oc23)[C@H](O)C1 [alvocidib]
Outline: (§1)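 To prepare the extract, K562 pellets were dounce-homogenised in PBS pH 7.4 with 1 mM MgCl2, giving crude material at 1 mg/mL protein. This was treated with 10 μM compound for 30 min, then heated in aliquots for 3 min over 48°C-58°C before pooling and addition of NP-40 to 0.5% at 4°C. Centrifugation at 21,000xg for 90 min left soluble protein in the supernatant, which TMTpro 16plex LC-MS/MS quantified with equalised channel sums. Results are log-two fold changes in thermal stability compared with solvent controls, from duplicates.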

Tubastatin A = compound: CN1CCc2c(c3ccccc3n2Cc2ccc(C(=O)NO)cc2)C1 [Tubastatin A]
Outline: as §1

[1] = compound: CNC(=O)C1=CC=CC=C1NC2=NC(=NC=C2Cl)NC3=C(C=C(C=C3)N4CCOCC4)OC
Outline: as §1

defactinib = compound: CNC(=O)c1ccc(Nc2ncc(C(F)(F)F)c(NCc3nccnc3N(C)S(C)(=O)=O)n2)cc1 [defactinib]
Outline: as §1

[2] = compound: CNc1nc(-c2ccc3c(N)n[nH]c3c2)cc(N2C[C@@H](C(=O)NC3CCCCC3)CC[C@H]2C)n1
Outline: as §1

encorafenib = compound: COC(=O)N[C@@H](C)CNc1nccc(-c2cn(C(C)C)nc2-c2cc(Cl)cc(NS(C)(=O)=O)c2F)n1 [encorafenib]
Outline: as §1

[3] = compound: COC(=O)[C@H](CCSC)NC(=O)C1=C(C=C(C=C1)NC[C@H](CS)N)C2=CC=CC=C2
Outline: as §1

alisertib = compound: COc1cc(Nc2ncc3c(n2)-c2ccc(Cl)cc2C(c2c(F)cccc2OC)=NC3)ccc1C(=O)O [alisertib]
Outline: as §1

gefitinib = compound: COc1cc2ncnc(Nc3ccc(F)c(Cl)c3)c2cc1OCCCN1CCOCC1 [gefitinib]
Outline: as §1

crizotinib = compound: C[C@@H](Oc1cc(-c2cnn(C3CCNCC3)c2)cnc1N)c1c(Cl)ccc(F)c1Cl [crizotinib]
Outline: as §1

[4] = compound: C[C@H](C1=CC=C(C=C1)C(=O)NC2=C3C=CNC3=NC=C2)N
Outline: as §1

duvelisib = compound: C[C@H](Nc1ncnc2nc[nH]c12)c1cc2cccc(Cl)c2c(=O)n1-c1ccccc1 [duvelisib]
Outline: as §1

gandotinib = compound: Cc1cc(Nc2cc(CN3CCOCC3)c3nc(C)c(Cc4ccc(Cl)cc4F)n3n2)n[nH]1 [gandotinib]
Outline: as §1

tozasertib = compound: Cc1cc(Nc2cc(N3CCN(C)CC3)nc(Sc3ccc(NC(=O)C4CC4)cc3)n2)n[nH]1 [tozasertib]
Outline: as §1

doramapimod = compound: Cc1ccc(-n2nc(C(C)(C)C)cc2NC(=O)Nc2ccc(OCCN3CCOCC3)c3ccccc23)cc1 [doramapimod]
Outline: as §1

[5] = compound: Cc1cccc(CC(=O)N2CCc3c2ccc(-c2cn(C)c4ncnc(N)c24)c3F)n1
Outline: as §1

[6] = compound: COc1cc2nc(-c3cc(F)ccc3O)nc(N[C@@H]3CNC[C@H]3C(C)(C)O)c2cc1OC
Outline: as §1

lapatinib = compound: CS(=O)(=O)CCNCc1ccc(-c2ccc3ncnc(Nc4ccc(OCc5cccc(F)c5)c(Cl)c4)c3c2)o1 [lapatinib]
Outline: as §1

pictilisib = compound: CS(=O)(=O)N1CCN(Cc2cc3nc(-c4cccc5[nH]ncc45)nc(N4CCOCC4)c3s2)CC1 [pictilisib]
Outline: as §1

bafetinib = compound: Cc1ccc(NC(=O)c2ccc(CN3CC[C@H](N(C)C)C3)c(C(F)(F)F)c2)cc1Nc1nccc(-c2cncnc2)n1 [bafetinib]
Outline: as §1

Measured: log2 fold change

ZNF326 (UniProt Q5BKZ1)
inactive: alvocidib -0.013 | Tubastatin A -0.082 | [1] 0.009 | defactinib -0.023 | [2] -0.013 | encorafenib 0.017 | [3] -0.042 | alisertib 0.089 | gefitinib 0.038 | crizotinib -0.032 | [4] -0.014 | duvelisib 0.102 | gandotinib -0.012 | tozasertib -0.012 | doramapimod -0.023 | [5] -0.014

ZNHIT3 (UniProt Q15649)
inactive: alvocidib -0.028 | Tubastatin A 0.033 | [1] 0.038 | defactinib 0.018 | [2] 0.133 | encorafenib 0.079 | [3] -0.032 | [6] 0.198 | lapatinib 0.044 | pictilisib 0.075 | crizotinib -0.022 | [4] 0.074 | duvelisib -0.027 | gandotinib 0 | tozasertib -0.134 | doramapimod 0.051 | bafetinib -0.147 | [5] 0.049

ZNF638 (UniProt Q14966)
inactive: alvocidib 0 | Tubastatin A 0.008 | [1] 0.018 | defactinib -0.006 | [2] 0.03 | encorafenib 0.028 | [3] 0.099 | alisertib 0.002 | [6] 0.019 | gefitinib -0.01 | lapatinib -0.007 | pictilisib -0.012 | crizotinib -0.003 | [4] -0.005 | duvelisib -0.018 | gandotinib -0.065 | tozasertib 0.046 | doramapimod 0.028 | bafetinib -0.011 | [5] 0.001

ZWINT (UniProt O95229)
inactive: alvocidib -0.002 | Tubastatin A 0.06 | [1] 0.019 | defactinib -0.025 | [2] 0.058 | encorafenib 0.023 | [3] -0.08 | alisertib 0.014 | [6] 0.022 | gefitinib 0.001 | lapatinib 0.004 | pictilisib -0.031 | crizotinib -0.019 | [4] -0.055 | duvelisib 0.02 | gandotinib 0.052 | tozasertib -0.027 | doramapimod -0.019 | bafetinib -0.038 | [5] -0.023

ZNF346 (UniProt Q9UL40)
inactive: alvocidib 0.05 | Tubastatin A 0.036 | [1] -0.009 | [2] -0.029 | encorafenib -0.006 | [3] 0.062 | alisertib -0.03 | [6] 0.019 | gefitinib 0.046 | lapatinib 0.01 | pictilisib -0.008 | crizotinib 0.009 | [4] -0.01 | duvelisib -0.009 | gandotinib -0.026 | tozasertib 0.005 | doramapimod 0.02 | bafetinib -0.043 | [5] -0.072

ZNF669 (UniProt Q96BR6)
inactive: alvocidib 0.117 | Tubastatin A 0.009 | [1] -0.024 | [2] -0.162 | alisertib -0.11 | [6] -0.1 | gefitinib 0.004 | lapatinib -0.073 | pictilisib -0.083 | crizotinib 0.189 | [4] -0.101 | duvelisib 0.111 | gandotinib -0.161 | doramapimod 0.186 | bafetinib -0.014 | [5] 0.066

ZNRF2 (UniProt Q8NHG8)
inactive: alvocidib 0.032 | Tubastatin A 0.11 | defactinib 0.121 | encorafenib 0.052 | [3] -0.039 | alisertib -0.007 | [6] 0.002 | gefitinib -0.119 | lapatinib 0.055 | pictilisib 0.155 | crizotinib 0.028 | [4] 0.054 | gandotinib 0 | tozasertib 0.06 | doramapimod 0.168 | bafetinib 0.014 | [5] -0.15

ZNF324 (UniProt O75467)
inactive: alvocidib -0.053 | Tubastatin A 0.045 | alisertib 0.003 | [6] -0.084 | gefitinib -0.129 | lapatinib 0.382 | crizotinib -0.078 | [4] -0.097 | gandotinib -0.091 | doramapimod 0.007 | [5] 0.163

ZNF444 (UniProt Q8N0Y2)
inactive: alvocidib 0.021 | Tubastatin A 0.056 | [2] 0.009 | pictilisib -0.575 | crizotinib -0.047 | [4] -0.115 | duvelisib 0 | gandotinib 0.249 | doramapimod -0.012 | bafetinib -0.676 | [5] 0.182

ZNF414 isoform 2 (UniProt Q96IQ9)
inactive: alvocidib 0.012 | Tubastatin A -0.069 | encorafenib -0.1 | [3] -0.065 | crizotinib 0.075 | [4] -0.036 | gandotinib 0.07 | tozasertib 0.44 | doramapimod 0.068 | [5] 0.175

ZNF691 (UniProt Q5VV52)
inactive: alvocidib -0.025 | Tubastatin A 0.001 | defactinib -0.009 | [2] -0.005 | encorafenib 0.024 | [3] -0.005 | [6] 0.008 | lapatinib -0.035 | pictilisib -0.071 | crizotinib 0.089 | [4] -0.115 | duvelisib 0 | gandotinib 0.073 | tozasertib 0.186 | doramapimod -0.148 | bafetinib 0.072 | [5] 0.016

ZNF281 (UniProt Q9Y2X9)
inactive: Tubastatin A -0.16 | [1] 0.025 | [2] 0.095 | crizotinib 0.003 | duvelisib 0.029 | doramapimod 0.02

Copied from the entries so far (2 entries):
ZNF326 (UniProt Q5BKZ1)
inactive: alvocidib -0.013 | Tubastatin A -0.082 | [1] 0.009 | defactinib -0.023 | [2] -0.013 | encorafenib 0.017 | [3] -0.042 | alisertib 0.089 | gefitinib 0.038 | crizotinib -0.032 | [4] -0.014 | duvelisib 0.102 | gandotinib -0.012 | tozasertib -0.012 | doramapimod -0.023 | [5] -0.014

ZNHIT3 (UniProt Q15649)
inactive: alvocidib -0.028 | Tubastatin A 0.033 | [1] 0.038 | defactinib 0.018 | [2] 0.133 | encorafenib 0.079 | [3] -0.032 | [6] 0.198 | lapatinib 0.044 | pictilisib 0.075 | crizotinib -0.022 | [4] 0.074 | duvelisib -0.027 | gandotinib 0 | tozasertib -0.134 | doramapimod 0.051 | bafetinib -0.147 | [5] 0.049

Following part:

ZNF207 isoform 2 (UniProt O43670)
inactive: Tubastatin A 0.015 | [1] 0.023 | defactinib 0.024 | [2] 0.055 | encorafenib -0.002 | [3] -0.127 | alisertib -0.01 | [6] 0.039 | gefitinib -0.1 | lapatinib -0.001 | pictilisib 0.029 | crizotinib -0.188 | duvelisib 0.088 | tozasertib -0.163 | doramapimod 0.073 | bafetinib 0.049

ZHX3 (UniProt Q9H4I2)
inactive: alvocidib -0.015 | Tubastatin A -0.027 | defactinib 0.029 | [2] 0.006 | alisertib -0.096 | [6] 0.048 | gefitinib 0.026 | lapatinib -0.041 | pictilisib -0.111 | [4] 0.027 | duvelisib 0.086 | gandotinib 0.158 | bafetinib 0 | [5] 0.126

ZYG11A (UniProt Q6WRX3)
inactive: alvocidib -0.18 | Tubastatin A 0.018 | [1] -0.013 | alisertib -0.08 | [6] 0.212 | gefitinib -0.029 | lapatinib -0.301 | pictilisib 0.031 | [4] -0.306 | gandotinib 0.192 | bafetinib -0.378 | [5] 0.323

ZNF852 (UniProt Q6ZMS4)
inactive: alvocidib 0.013 | [1] -0.032 | defactinib 0.056 | [6] -0.096 | lapatinib 0.142 | crizotinib 0.132 | [4] 0.056 | gandotinib 0.07 | doramapimod -0.066 | [5] 0.136

ZNRD1 (UniProt Q9P1U0)
inactive: alvocidib -0.05 | [1] 0.051 | alisertib -0.075 | gefitinib -0.044 | [4] -0.008 | gandotinib 0.058 | [5] 0.19

ZNF384 (UniProt Q8TF68)
inactive: Tubastatin A 0.001 | [1] 0.063 | [2] 0.224 | encorafenib -0.221 | [3] 0.085 | alisertib -0.069 | [6] -0.177 | gefitinib -0.056 | lapatinib -0.151 | crizotinib -0.07 | duvelisib -0.013 | tozasertib -0.156 | doramapimod 0.098

ZNF485 (UniProt Q8NCK3)
inactive: Tubastatin A 0.137

ZNF670 (UniProt Q9BS34)
inactive: alvocidib -0.039 | [1] 0.024 | alisertib -0.037 | gefitinib -0.029 | [4] -0.03 | gandotinib 0.018 | [5] 0.031
